According to publication PMC8864165 (Frontiers in Chemistry, 2022):

Assay: peptide made by a vendor (peptide synthesis; Rink amide resin)
Conditions: whole synthesis, RP-HPLC recording the absorbance at 214 nm, acetate

Chex-RPDKPRPYLPRPRPPRPVR-NH2
final HPLC purity: 97.3%
